Measurements taken from PubChem BioAssay AID1273 (Columbia University Molecular Screening Center, 2008).
The list shows a part of the results. These are further read-outs of the screen, such as a control signal, another cell line or another target. No call is given for them. Most of these compounds were active or inconclusive in the main read-out, so they are no random draw.

Assay: inhibitors of insulin promoter-driven GFP, primary screen, imaging, TRM-6 cells (human fetal islet line), eGFP reporter, cell count (AID 1273;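 note: cells exposed to compound for 48 h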)
Settings: measured here: cell count, toxicity, at 2 µM, reporter expression induced with tamoxifen

Row | SMILES | normalized cell count [%]
1 | CCOc1ccc(S(=O)(=O)n2cc(-c3ccc(F)cc3)c(N)n2)cc1 | 108
2 | CC1(C)Cc2c(sc3ncnc(N)c23)CO1 | 28.6
3 | O=C(c1cccc(-c2ccc(O)cc2)c1)N1CCN(c2ccc(F)cc2)CC1 | 88.6
4 | COCC(=O)Nc1ccc(S(=O)(=O)NCCc2ccccc2)cc1 | 5.45
5 | COC(=O)C(F)(F)Sc1c(C)[nH]c2ccccc12 | 91.8
6 | O=C(Nc1cccc(Cl)c1)/C(=C\c1cccnc1)NC(=O)c1ccco1 | 114
7 | Cc1ccc2[nH]c3c(NCc4ccco4)ncnc3c2c1 | 149
8 | Cc1nn(-c2ccccc2)c(Cl)c1/C=N/NS(=O)(=O)c1ccc(Br)cc1 | 134
9 | COc1ccc(C(=O)NC(C(=O)NCC2CCCO2)C(C)C)cc1 (stereo unspecified) | 31.4
10 | CCC(NC(=O)NCc1ccccc1)(C(F)(F)F)C(F)(F)F | 64.1
11 | CS(=O)(=O)NCc1ccc(C(=O)NCCOc2ccccc2)cc1 | 10.6
12 | O=C(O)c1ccc(CNC(=O)c2ccc(C(F)(F)F)cc2)cc1 | 116
13 | CCCc1nc2ccccc2c2nc(N)nn12 | 110
14 | COc1ccc(N2CCN(C(=O)CCCn3c(=O)[nH]c4cc(Cl)ccc4c3=O)CC2)cc1 | 90.5
15 | O=C(N1CCN(c2ccccn2)CC1)C(Cl)(Cl)Cl | 138
16 | CC(C)(C)C(=O)NC(=S)NNC(=O)c1ccc(-c2ccccc2)cc1 | 80.7

Three structures already listed, ordered by heavy-atom count, ascending:
Row | SMILES | normalized cell count [%]
2 | CC1(C)Cc2c(sc3ncnc(N)c23)CO1 | 28.6
6 | O=C(Nc1cccc(Cl)c1)/C(=C\c1cccnc1)NC(=O)c1ccco1 | 114
3 | O=C(c1cccc(-c2ccc(O)cc2)c1)N1CCN(c2ccc(F)cc2)CC1 | 88.6

Additional compounds.

Row | SMILES | normalized cell count [%]
17 | O=C(O)Cc1ccc(NS(=O)(=O)c2ccccc2Cl)cc1 | 88.5
18 | Cc1cc(NC(=O)c2ccc3c(c2)OCO3)no1 | 69
19 | Clc1ccc2c(N/N=C/c3ccccc3Br)ccnc2c1 | 169
20 | CSc1ccc(NC(=O)N2CC=C(n3c(=O)[nH]c4ccccc43)CC2)cc1 | 83.3
21 | COc1cccc(NC(=O)Cc2ccccc2)c1 | 111
22 | COC(=O)c1c(C)oc2ccc(NS(=O)(=O)c3cc(OC)ccc3OC)cc12 | 110
23 | Cc1cc(C)c(-c2c(O)c3cnn(-c4ccccc4)c3[nH]c2=O)c(C)c1 | 149
24 | COCCNC(=O)CCCn1c(=O)c2cc(OC)c(OC)cc2n(CC(=O)NCCC2=CCCCC2)c1=O | 83.5
25 | COc1ccc(N2C(=O)c3ccc(C(=O)OC(C)C)cc3C2=O)cc1 | 37.2
26 | Cc1ccc(S(=O)(=O)N(CCC(=O)O)c2ccccc2)cc1 | 146
27 | CCOC(=O)C1=NOC2C(=O)N(c3ccc(Cl)cc3Cl)C(=O)C12 (stereo unspecified) | 212
28 | C/C(=N\NC(=O)CCCNc1ccc(C)cc1)c1ccccn1 | 115
29 | N#Cc1sc2nc3c(cc2c1N)CCCC3 | 126
30 | COc1cc(Cl)ccc1NC(=O)COc1ccccc1C(=O)N1CCN(c2ccc(O)cc2)CC1 | 56
31 | CCN(CC)S(=O)(=O)c1ccc(C(=O)C(C#N)c2ccccn2)cc1 (stereo unspecified) | 71.3
